# Experimental data: PubChem BioAssay AID1259254 (NCATS, 2017)
# Screen: 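Gene knock-downs that lead to re-replication, shown by excess G2 DNA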 (primary screen)
# Cells: human HCT116 colorectal cancer cells
# Knock-down reagent: single siRNA against human genes
# Duration: 3 days
# Measured: 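Nuclei stained with Hoechst and imaged; cell-cycle phase assigned by DNA content; G2 share scaled per plate, non-targeting siRNA 0%, GMNN siRNA 100%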
# Reading the numbers: G2 robust z-score and G2 cells, % of GMNN control: higher = more G2 cells, more excess DNA replication; raw share of cells in G2: higher = larger share of cells with G2 DNA content
# Active means: 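Active siRNAs have a G2 robust z of 5 or more median absolute deviations over the median, which in these data means about 38% or higher of GMNN control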
# The deposit covers about 59,000 reagents; below is a part drawn at random. In the full data, about 1,550 (2.6%) are marked active. 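G2 share is only a proxy for re-replication; each gene was hit by three separate siRNAs, and active genes were retested.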 Raw values are not corrected between plates. Unmarked entries are inactive. Reagents against one gene are numbered here. Not stated in the record: the amount of reagent.
gene,siRNA no.,G2 robust z-score,"G2 cells, % of GMNN control",raw share of cells in G2 (%)
BPIFA1 (GeneID 51297),1,2.5,20.6,15.3
BPIFA1 (GeneID 51297),2,0.322,5.23,6.18
BPIFA1 (GeneID 51297),3,-0.607,-1.3,3.3
ZNF460 (GeneID 10794),1,-0.507,-0.603,3.33
ZNF460 (GeneID 10794),2,-0.0947,2.3,7.01
ZNF460 (GeneID 10794),3,-0.0777,2.42,4.35
KCNIP3 (GeneID 30818),1,-0.335,0.609,3.01
KCNIP3 (GeneID 30818),2,-0.835,-2.9,4.6
KCNIP3 (GeneID 30818),3,-0.13,2.06,4.28
REST (GeneID 5978),1,1.04,10.3,7.55
REST (GeneID 5978),2,-0.204,1.53,5.56
REST (GeneID 5978),3,-0.325,0.681,3.36
FARP1 (GeneID 10160),1,-1.63,-8.53,3.12
FARP1 (GeneID 10160),2,-1.14,-5.04,3.51
FARP1 (GeneID 10160),3,-0.651,-1.61,3.32
FAM81A (GeneID 145773),1,-0.0759,2.43,4.64
FAM81A (GeneID 145773),2,0.149,4.02,4.15
FAM81A (GeneID 145773),3,-0.297,0.878,3.37
INTS8 (GeneID 55656),1,-0.57,-1.04,4.12
INTS8 (GeneID 55656),2,0.192,4.32,5.93
INTS8 (GeneID 55656),3,0.617,7.31,5.47
NFYA (GeneID 4800),1,-0.483,-0.432,5.19
NFYA (GeneID 4800),2,-0.132,2.04,3.87
NFYA (GeneID 4800),3,0.552,6.85,8.19
BATF2 (GeneID 116071),1,-0.42,0.0143,4.49
BATF2 (GeneID 116071),2,-0.252,1.19,6.23
BATF2 (GeneID 116071),3,4.49,34.6,19.8
LYPD6 (GeneID 130574),1,-0.675,-1.78,2.54
LYPD6 (GeneID 130574),2,0.669,7.67,5.36
LYPD6 (GeneID 130574),3,-0.484,-0.437,4.01
SLC25A27 (GeneID 9481),1,-0.196,1.59,3.74
SLC25A27 (GeneID 9481),2,-0.822,-2.82,3.61
SLC25A27 (GeneID 9481),3,-0.498,-0.534,5
DNAJC24 (GeneID 120526),1,0.922,9.45,6.34
DNAJC24 (GeneID 120526),2,0.477,6.32,5.36
DNAJC24 (GeneID 120526),3,-0.947,-3.69,2.23
SPINK1 (GeneID 6690),1,-0.0668,2.5,4.78
SPINK1 (GeneID 6690),2,0.0737,3.49,6.85
SPINK1 (GeneID 6690),3,-0.66,-1.68,3.97
N4BP2L2 (GeneID 10443),1,0.381,5.65,7.88
N4BP2L2 (GeneID 10443),2,2.68,21.8,13.1
N4BP2L2 (GeneID 10443),3,-0.607,-1.3,2.93
MTPAP (GeneID 55149),1,-0.605,-1.29,4.03
MTPAP (GeneID 55149),2,0.722,8.05,7.47
MTPAP (GeneID 55149),3,-0.483,-0.434,3
QTGAL (GeneID 146712),1,0.837,8.86,8.42
QTGAL (GeneID 146712),2,1.38,12.7,12
QTGAL (GeneID 146712),3,-0.0282,2.77,5.72
THG1L (GeneID 54974),1,-0.0637,2.52,4.5
THG1L (GeneID 54974),2,-0.924,-3.53,2.78
THG1L (GeneID 54974),3,-0.437,-0.104,3.16
STEAP4 (GeneID 79689),1,-0.196,1.59,5.1
STEAP4 (GeneID 79689),2,-0.305,0.824,4.66
STEAP4 (GeneID 79689),3,-0.0506,2.61,3.09
TSPAN2 (GeneID 10100),1,0.596,7.16,8.57
TSPAN2 (GeneID 10100),2,-1.05,-4.41,2.1
TSPAN2 (GeneID 10100),3,3.56,28,13.6
SYNGR1 (GeneID 9145),1,-0.718,-2.09,4.21
SYNGR1 (GeneID 9145),2,-0.513,-0.641,3.64
SYNGR1 (GeneID 9145),3,-0.154,1.89,4.01
CTTNBP2NL (GeneID 55917),1,0.809,8.66,7.76
CTTNBP2NL (GeneID 55917),2,-0.542,-0.846,4.06
CTTNBP2NL (GeneID 55917),3,0.0726,3.48,4.13
LINC00242 (GeneID 401288),1,-1.54,-7.86,1.53
LINC00242 (GeneID 401288),2,-1.54,-7.86,0.951
LINC00242 (GeneID 401288),3,1.55,13.8,9.01
CARS1 (GeneID 833),1,-0.679,-1.81,3.32
CARS1 (GeneID 833),2,-0.213,1.47,5.22
CARS1 (GeneID 833),3,-0.841,-2.95,4.02

Quoted from the entries so far for reference:
gene,siRNA no.,G2 robust z-score,"G2 cells, % of GMNN control",raw share of cells in G2 (%)
MTPAP (GeneID 55149),3,-0.483,-0.434,3
QTGAL (GeneID 146712),1,0.837,8.86,8.42
QTGAL (GeneID 146712),2,1.38,12.7,12
QTGAL (GeneID 146712),3,-0.0282,2.77,5.72
THG1L (GeneID 54974),1,-0.0637,2.52,4.5
THG1L (GeneID 54974),2,-0.924,-3.53,2.78
